Results: publication PMC11196597
No constants are given. Whether binding was seen depends on the method and setting. In cells and extracts the contact can be indirect. For part of these data: Binding can be weak; no strength is given. Tags and fused reporters may be left off the sequences shown.

What was measured:
Assay in all cases: co-IP; mapping of VHL regions: full-length Flag-VHL or Flag-tagged acidic domain, β-domain or α-domain transiently transfected into HEK293T cells; form of UBE3B not given
[1] = biological target: Flag-tagged acidic domain of VHL (human)
[2] = biological target: Flag-tagged α-domain of VHL (human)
[3] = biological target: Flag-tagged β-domain of VHL (human)

B1: Myc-UBE3B, full-length (FL) (protein, UniProt Q7Z3V4 1-1068)
chain: MFTLSQTSRAWFIDRARQAREERLVQKERERAAVVIQAHVRSFLCRSRLQRDIRREIDDFFKADDPESTKRSALCIFKIARKLLFLFRIKEDNERFEKLCRSILSSMDAENEPKVWYVSLACSKDLTLLWIQQIKNILWYCCDFLKQLKPEILQDSRLITLYLTMLVTFTDTSTWKILRGKGESLRPAMNHICANIMGHLNQHGFYSVLQILLTRGLARPRPCLSKGTLTAAFSLALRPVIAAQFSDNLIRPFLIHIMSVPALVTHLSTVTPERLTVLESHDMLRKFIIFLRDQDRCRDVCESLEGCHTLCLMGNLLHLGSLSPRVLEEETDGFVSLLTQTLCYCRKYVSQKKSNLTHWHPVLGWFSQSVDYGLNESMHLITKQLQFLWGVPLIRIFFCDILSKKLLESQEPAHAQPASPQNVLPVKSLLKRAFQKSASVRNILRPVGGKRVDSAEVQKVCNICVLYQTSLTTLTQIRLQILTGLTYLDDLLPKLWAFICELGPHGGLKLFLECLNNDTEESKQLLAMLMLFCDCSRHLITILDDIEVYEEQISFKLEELVTISSFLNSFVFKMIWDGIVENAKGETLELFQSVHGWLMVLYERDCRRRFTPEDHWLRKDLKPSVLFQELDRDRKRAQLILQYIPHVIPHKNRVLLFRTMVTKEKEKLGLVETSSASPHVTHITIRRSRMLEDGYEQLRQLSQHAMKGVIRVKFVNDLGVDEAGIDQDGVFKEFLEEIIKRVFDPALNLFKTTSGDERLYPSPTSYIHENYLQLFEFVGKMLGKAVYEGIVVDVPFASFFLSQLLGHHHSVFYSSVDELPSLDSEFYKNLTSIKRYDGDITDLGLTLSYDEDVMGQLVCHELIPGGKTIPVTNENKISYIHLMAHFRMHTQIKNQTAALISGFRSIIKPEWIRMFSTPELQRLISGDNAEIDLEDLKKHTVYYGGFHGSHRVIIWLWDILASDFTPDERAMFLKFVTSCSRPPLLGFAYLKPPFSIRCVEVSDDQDTGDTLGSVLRGFFTIRKREPGGRLPTSSTCFNLLKLPNYSKKSVLREKLRYAISMNTGFELS
[1]
  binding: no binding
[2]
  binding: no binding
[3]
  binding: binds
